The values below come from publication PMC2951065 (Journal of Medicinal Chemistry, 2010).

Molecules are shown by their SMILES.

The data set can be described thus: Precipitation in cell culture medium. It counts as physicochemical.

As to `Cc1cc(/N=N/c2ccc(/N=N/c3ccc(O)c(C(=O)O)c3)cc2)c(N)cc1N` [Compound 13, 1,3-[[4-(2,4-diamino-5-methylphenyl)diazenylphenyl]hydrazinylidene]-6-oxocyclohexa-1,4-diene-1-carboxylic acid], the “concentration at which compound tends to precipitate in the cell culture medium” value was more than 300 µM.
